Measured values as given in patent US7321059B2, “Compounds for use as surfactants” (Glaxo Group Limited, priority 2001, dated 2008).
At least one structure is not confirmed: it was looked up by name or label, or the drawing left a doubt.

Key:
[1] = Content uniformity by dose through use testing of salmeterol xinafoate HFA 134a MDI formulations; type: physicochemical; conditions: salmeterol xinafoate 25 mcg per actuation in HFA 134a
Method: Salmeterol xinafoate formulations in HFA 134a, of strength 25 mcg per actuation, and 10% w/w (relative to drug) of the relevant surfactant compound of formula (I) (i.e. Example 3 or Example 4) prepared in aluminum cans with a crimped cap containing a metering valve using salmeterol xinafoate (8.7 mg), HFA 134a (18 g) and the relevant compound (0.87 mg). The control was prepared without the addition of a surfactant. The content uniformity of the formulations was assessed by dose through use testing. Testing was performed on a set of 10 cans/inhalers for each of the formulations, at “beginning of use” (BoU) and “end of use” (EoU). After each inhaler had been primed (4 shots fired to waste), actuations 1 and 2 (BoU) were collected. The next 116 actuations of each inhaler were then fired to waste using an automated method and actuations 119 and 120 (EoU) collected.
In the control there was a rise from beginning to end of use of 5.6 mcg. However, in the presence of the said surfactant compound this rise was reduced to 1.4 mcg for formulations incorporating a compound of Example 3 and 2.8 mcg for formulations incorporating a compound of Example 4. There was also a reduction in the percentage RSD at BoU for the formulations incorporating said surfactant compounds, thereby showing improved can to can reproducibility. Furthermore, there was also a reduction in the percentage RSD at EoU for the formulations incorporating Example 4. The presence of the said surfactants therefore improves the content uniformity of the inhaler.

[2] = Deposition of drug on valve and can of salmeterol xinafoate HFA 134a MDI formulations (HPLC); type: physicochemical; conditions: salmeterol xinafoate 1.50 mg in HFA 134a 3 g, surfactant 0.15 mg (10% w/w relative to drug)
Method: Salmeterol xinafoate formulations in HFA 134a, strength 25 mcg per dose for each of 60 actuations, and 10% w/w (relative to drug) of the relevant surfactant compound of formula (I) (i.e. Example 3 or Example 4) were prepared in aluminum cans with a crimped cap containing a metering valve using salmeterol xinafoate (1.50 mg), HFA 134a (3 g) and the relevant compound (0.15 mg). The control was prepared without the addition of a surfactant.
Cans containing the said formulations for analysis were cooled to […] to liquefy the propellant therein. These were then opened and the contents collected in a vessel. The valve and the empty can were quantitatively washed. The washings for each component were kept separate. The amount of drug in: the contents removed from the can, the valve washings and the can washing was quantified by HPLC analysis.
Therefore, the presence of said surfactants in formulations seems to reduce the deposition of the drug on the can and valve.

COCCOCCOCCOCCOCCOCCOCCOCCOCCOCCCOCC(OCCCOCCOCCOCCOCCOCCOCCOCCOCCOCCOC)C(=O)O (centres unmarked) [Example 4, 35-(4,7,10,13,16,19,22,25,28,31-Decaoxadotriacont-1-yloxy)-2,5,8,11,14,17,20,23,26,29,33-undecaoxahexatriacontan-36-oic acid]
BoU Dose % RSD ([1]; can to can reproducibility at beginning of use, 10% w/w surfactant, 10 cans): 1.6% | EoU Dose % RSD ([1]; can to can reproducibility at end of use, 10% w/w surfactant, 10 cans): 5.7% | EoU − BoU (rise in dose from beginning to end of use) ([1]; 10% w/w surfactant relative to drug): 2.8 µg | BoU Dose ([1]; 10% w/w surfactant relative to drug, beginning of use, actuations 1 and 2, 10 cans): 16.0 µg | EoU Dose ([1]; 10% w/w surfactant relative to drug, end of use, actuations 119 and 120, 10 cans): 18.8 µg | Can Deposition ([2]; aluminum can): 0.31 mg | Valve Deposition ([2]; aluminum can): 0.30 mg | Drug Content In Can ([2]; contents removed from can): 0.58 mg
